# Test results published in PubChem BioAssay AID493014 (National Center for Advancing Translational Sciences (NCATS), 2011).
# The other results are listed elsewhere or left out. Further columns of the screen follow, without active or inactive calls. Compounds called inactive in the main read-out are mostly missing here. Words in brackets tell the shape of the fitted curve; partial curves, single points and poor fits give uncertain potencies.
# Experiment: qHTS Assay to Find Inhibitors of Chronic Active B-Cell Receptor Signaling
# Conditions: ABC-DLBCL IkBa-CBG/CBR reporter, luminescence ratio (green luciferase fused to IkBa over red control in TMD8 lymphoma cells), 4 h
# Procedure, shortened: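 Doxycycline induced both beetle luciferases in TMD8 lymphoma cells; IKK-driven degradation limits the IkappaBalpha-fused green signal, while red luminescence normalises for cell number and nonspecific effects. Compounds tested up to 46 uM, 4 hrs.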
# [1] = measured here: CBR red luminescence, cell number
# [2] = measured here: IkBa-CBG green luminescence
SMILES,AC50 [1],AC50 [2]
CC(C)CC(=O)Nc1cccc(-c2csc(-c3ccccc3)n2)c1,"29.1 µM [falling, single point]",–
Cc1ccc(NC(=O)C2CC2c2ccccc2)c([N+](=O)[O-])c1 (stereo unspecified),"1.41 µM [rising, full curve, poor fit]",–
Clc1ccc(-c2csc(N3CCOCC3)n2)cc1,"15.8 µM [rising, partial curve, poor fit]",–
Cc1c(NC(=O)CSc2nncc3ccccc23)c(=O)n(-c2ccccc2)n1C,"11.6 µM [falling, partial curve]",–
COc1ccc2[nH]c(O)c(NC(C)=O)c2c1,"6.51 µM [falling, single point]",–
CCN1CCN(Cc2ccc(NC(=O)c3ccc(C)c(NC(=O)c4cccc(-c5cn[nH]c(=O)c5)c4)c3)cc2C(F)(F)F)CC1,"11.2 µM [falling, partial curve, poor fit]",–
CCn1c(NCc2ccco2)nc2c1c(=O)n(C)c(=O)n2C,"0.517 µM [falling, full curve, poor fit]",–
CC(=O)Nc1cc(Cl)ccc1OS(=O)(=O)c1ccc(C)cc1,"0.082 µM [rising, full curve, poor fit]",–
CC(=O)Nc1ccc(N=C(C2=C(O)c3ccccc3C2=O)c2ccccc2)cc1,"22.4 µM [falling, single point]",–
Cc1cc2nc(/C=C/c3cccnc3)[nH]c2cc1C,"1.58 µM [rising, partial curve, poor fit]","6.31 µM [falling, partial curve]"
O=S(=O)(NCc1ccccc1)c1ccc(S(=O)(=O)N(Cc2ccccn2)C2CCCC2)cc1,"0.231 µM [falling, full curve, poor fit]","23.1 µM [rising, single point]"
CC(=O)c1cccc(NC(=O)/C(=C\c2cccnc2)NC(=O)c2ccc(C)cc2)c1,"0.1 µM [rising, full curve, poor fit]",–
O=C1OC(C(=O)Nc2ccccc2)Cc2ccccc21 (stereo unspecified),"14.1 µM [falling, single point]",–
CN(CC(=O)Nc1ccccc1Cl)C(=O)c1ccccc1SCC(=O)N1CCCC1,"29.1 µM [rising, single point]",–
CC(C)(C)NC(=O)CC1C[C@H](C(=O)N2CCCCC2)[C@@]2(C)c3[nH]c4ccccc4c3CCN2C1=O (stereo partly specified),"1.46 µM [rising, partial curve, poor fit]",–
COc1ccccc1NCC(=O)NN=C1CCS(=O)(=O)c2ccc(F)cc21,"29.1 µM [falling, single point]",–
CC(=O)Nc1cc2c(cc1NC(=O)Cn1nc(-c3ccc4c(c3)OCCO4)ccc1=O)OCCO2,"0.58 µM [falling, partial curve]",–
CC12COC3(P(=O)(c4ccccc4)c4ccccc4)CC1CCC23CP(=O)(c1ccccc1)c1ccccc1 (stereo unspecified),"15.8 µM [falling, single point]",–
CCOC(=O)c1ccc(N2C(=O)CC(SCC(=O)Nc3ccc(S(N)(=O)=O)cc3)C2=O)cc1 (stereo unspecified),"22.4 µM [falling, partial curve, poor fit]",–
O=C(CCCN1C(=O)/C(=C/c2ccccc2Cl)SC1=S)NNC(=O)c1ccncc1,"1.12 µM [falling, full curve]",–

SMILES,AC50 [1],AC50 [2]
COC(=O)c1ccsc1NC(=O)CS(=O)(=O)c1ccccc1,"0.58 µM [falling, full curve, poor fit]","25.9 µM [rising, partial curve, poor fit]"
COc1ccccc1NC(=O)c1ccc2nc(C)c(C)nc2c1,"6.31 µM [falling, partial curve, poor fit]",–
COc1cc(C(=O)OC(C)CN2CCOCC2)cc(OC)c1OC (stereo unspecified),"12.6 µM [rising, partial curve, poor fit]",–
O=C(NNC1=NS(=O)(=O)c2ccccc21)c1ccc([N+](=O)[O-])cc1,"10 µM [falling, partial curve, poor fit]",–
CCc1ccc(C(C)NC(=S)NCc2ccc(F)cc2)cc1 (stereo unspecified),"35.5 µM [falling, single point]",–
CC(C)CCN1C(=O)c2ccc(C(=O)OCC(=O)N(CC(C)C)C3CCS(=O)(=O)C3)cc2C1=O (stereo unspecified),"25.9 µM [falling, partial curve, poor fit]",–
O=C(NCCc1ccccc1)C1(c2ccccc2)CC1(Cl)Cl (stereo unspecified),"1.12 µM [rising, partial curve, poor fit]",–
CCOC(=O)C1=C(O)/C(=C/c2cn(CC(=O)N3CCCC3)c3ccccc23)SC1=Nc1ccccc1,"11.6 µM [rising, partial curve, poor fit]",–
CCCc1n[nH]c2c1/C(=N\OCC)CC(C)(C)C2,"5.62 µM [falling, partial curve, poor fit]",–
O=c1[nH]c(NNC(=S)NC2CCCCC2)nc2c1C1(CCCC1)Cc1ccccc1-2,"1.58 µM [falling, partial curve, poor fit]",–
COc1ccc(OC)c(C(c2nnnn2C2CCCC2)N2CCc3ccccc3C2)c1 (stereo unspecified),"23.1 µM [falling, single point]",–
Cc1cccc2sc(NC(=O)CN(C)S(=O)(=O)c3cccs3)nc12,"2.59 µM [falling, full curve]",–
O=C(Nc1nc(-c2ccco2)cs1)c1ccccc1,"8.91 µM [falling, partial curve, poor fit]",–
O=c1c2ccccc2nnn1-c1ccc(Br)cc1,"14.1 µM [rising, partial curve, poor fit]",–
CCS(=O)(=O)c1ccc(C(=O)N2CCN(c3nc4c(OC)ccc(C)c4s3)CC2)cc1,"1 µM [rising, partial curve, poor fit]",–
Cc1ccc(NC(=O)CNC(=O)c2ccco2)nc1,"3.98 µM [rising, single point]",–
O=C(/C=C/c1cc([N+](=O)[O-])ccc1OC(F)F)Nc1ccc(OC(F)F)cc1,"5.01 µM [rising, full curve, poor fit]",–
Brc1ccc(-c2cnc3n2CCCC3)cc1,"3.66 µM [rising, full curve]",–
COc1ccc(C(=O)NCc2cn3cccc(C)c3n2)cc1OC,–,"0.562 µM [rising, full curve, poor fit]"
C=CCn1c(=O)c2c(nc3n2CC(C)CN3CCc2ccccc2)n(C)c1=O (stereo unspecified),"7.08 µM [falling, partial curve]",–

# 4 entries from above, arranged by length of the SMILES, low to high:
SMILES,AC50 [1],AC50 [2]
CCc1ccc(C(C)NC(=S)NCc2ccc(F)cc2)cc1 (stereo unspecified),"35.5 µM [falling, single point]",–
COc1cc(C(=O)OC(C)CN2CCOCC2)cc(OC)c1OC (stereo unspecified),"12.6 µM [rising, partial curve, poor fit]",–
O=C(NNC1=NS(=O)(=O)c2ccccc21)c1ccc([N+](=O)[O-])cc1,"10 µM [falling, partial curve, poor fit]",–
O=C(/C=C/c1cc([N+](=O)[O-])ccc1OC(F)F)Nc1ccc(OC(F)F)cc1,"5.01 µM [rising, full curve, poor fit]",–

# Next part:

SMILES,AC50 [1],AC50 [2]
O=C(c1ccc(NS(=O)(=O)c2ccc(Cl)c(Cl)c2)cc1)N1CCOCC1,"32.6 µM [falling, single point]",–
COc1cc([C@@H]2c3cc4c(cc3[C@H](O)[C@H]3COC(=O)[C@H]23)OCO4)cc(OC)c1OC,"1.03 µM [rising, full curve]","0.411 µM [falling, partial curve]"
O=c1nc(/C=C/c2ccccc2C(F)(F)F)cc(C(F)(F)F)[nH]1,"4.47 µM [falling, full curve, poor fit]",–
CCOc1ccccc1OCCCOc1ccc(C)cc1Cl,"12.6 µM [rising, partial curve]",–
CC(C)(C)c1cc(NC(=O)Nc2ccccc2OC(F)(F)F)no1,"7.08 µM [rising, partial curve, poor fit]",–
Cc1cc(C)nc(SCc2ccc(C(=O)N/N=C/c3ccncc3)cc2)n1,–,"10 µM [falling, partial curve, poor fit]"
CSCCC(NC(=O)c1ccccc1Br)C(=O)NNC(=O)c1csc(N2CCOCC2)n1 (stereo unspecified),"14.6 µM [rising, partial curve, poor fit]",–
CS(=O)(=O)c1ccc2nc(NC(=O)c3cccs3)sc2c1,"16.4 µM [falling, partial curve]",–
c1ccc(-n2ncc3c(NCCCN4CCOCC4)ncnc32)cc1,"35.5 µM [falling, single point]",–
O=C(N/N=C/c1cccc(OCc2ccccc2)c1)c1ccc(Br)o1,"20 µM [falling, single point]",–
O=C(CN(Cc1ccccc1)S(=O)(=O)c1ccccc1)NC1CC1,"23.1 µM [rising, single point]",–
Nc1nn(S(=O)(=O)c2cccc3nsnc23)cc1-c1ccc(Br)cc1,"0.82 µM [falling, partial curve, poor fit]",–
COc1cccc2cc(C(=O)Nc3cccnc3N3CCOCC3)c(=O)oc12,"2.31 µM [rising, partial curve]",–
Cc1cc(C)c(C(=O)/C=C/C=C/c2ccccc2)c(=O)[nH]1,"29.1 µM [falling, single point]","18.4 µM [falling, single point]"
Cc1ccc(C(=O)OCC(=O)Nc2cc(C(C)(C)C)nn2-c2ccccc2)c(O)c1,"18.4 µM [falling, single point]",–
Cc1ccc(NC(=O)c2nc[nH]c2C(=O)N[C@@H](C)c2ccccc2)cc1,"0.1 µM [rising, full curve, poor fit]",–
CC(C)C(=O)Nc1ccc(N2CCCC2)c(Cl)c1,"10 µM [rising, partial curve, poor fit]",–
Cc1cc(=O)c(C(=O)Nc2cccc(N3CCCC3=O)c2)nn1-c1ccccc1Cl,"16.4 µM [rising, single point]","4.61 µM [falling, partial curve]"
CCCS(=O)(=O)c1c(S(=O)(=O)CCC)c2c(N)cccn2c1C(=O)c1ccc(Br)cc1,"3.26 µM [falling, partial curve, poor fit]","25.9 µM [rising, partial curve, poor fit]"
